About 2,100 (0.66%) of roughly 320,000 compounds were called active. The inconclusive results got no clear call from the source; some entries with a clear call stand among them for comparison. The call rests on the fitted dose curve; in most records, active means well fitted inhibition curve with a large enough effect in the signal ratio, with a control signal flat (not every such curve was filed as active); inconclusive means small, poorly fitted or top-dose-only effect, or effect the other way, or a change in a side signal; inactive means flat fitted curve, though single readings scatter; the % refers to the signal ratio. Potencies beside an inconclusive call are fits to weak or partial responses and may not hold up.
Assay: qHTS Assay for Lipid Storage Modulators in Drosophila S3 Cells
Details: BODIPY lipid droplet fluorescence, 18-24 h, cells fed with added oleic acid; lipid storage change, negative = inhibition: at 46.1 µM (top of the series) unless noted
Method in brief: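 Drosophila S3 cells got compounds at several concentrations plus oleic acid (400 uM solution). Laser-scanning cytometry with 488 nm excitation read lipid droplets at 500-530 nm and cells at 575-640 nm. Percent activity was relative to 20 uM Triacsin C.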
For `Cn1c(CNC(=O)OC(C)(C)C)nnc1SCC(=O)N1CCOCC1`, the lipid storage change, negative = inhibition was inconclusive: -20.5%. In the case of `O=C(NCC1CCCCN1)c1cc(OCC(F)(F)F)ccc1OCC(F)(F)F` (stereo not drawn), the lipid storage change, negative = inhibition is reported as inconclusive: 8.53%. In the case of `CC(=O)c1cc(-c2ccccc2)n(CCC(=O)NC2CCCCC2)c1C`, the lipid storage change, negative = inhibition is reported as inconclusive: 25.3%. In the case of `O=C(CSc1n[nH]c(-c2ccccc2)n1)Nc1ccc(N2CCOCC2)cc1`, the lipid storage change, negative = inhibition is reported as inconclusive: -41.4% [cytotoxic] [at 0.00295 µM]. With `CNc1ccccc1C(=O)OC(C)C(=O)Nc1ccc(S(=O)(=O)N2CCCC2)cc1` (stereo not drawn) the lipid storage change, negative = inhibition was inconclusive: -100%. In the case of `O=c1c2c3c(sc2n(CCN2CCOCC2)c(=O)n1Cc1ccco1)CCCCC3`, the lipid storage change, negative = inhibition is reported as inconclusive: 16%. In the case of `COc1ccc(CCNC(=O)CSc2nnc(CNC(=O)c3ccco3)o2)cc1OC`, the lipid storage change, negative = inhibition is reported as inconclusive: -13.1%. In the case of `CCNS(=O)(=O)c1ccc(CCC(=O)N2CCN(c3ccc(OC)cc3)CC2)cc1`, the lipid storage change, negative = inhibition is reported as inconclusive: 46.1%. In the case of `Cc1cccc(C(=O)NCCCNC(=O)c2ccco2)c1`, the lipid storage change, negative = inhibition is reported as inconclusive: 154%. In the case of `Cc1ccc(C(=O)N2CCN(c3ncccn3)CC2)cc1NC1=NC2CS(=O)(=O)CC2S1` (stereo not drawn), the lipid storage change, negative = inhibition is reported as inconclusive: 44.2%. In the case of `Cc1cc(OCC(=O)Nc2cccnc2)c2c(C)c(C)c(=O)oc2c1`, the lipid storage change, negative = inhibition is reported as inconclusive: -109%. With `CCN(CC)S(=O)(=O)c1ccc(Oc2cccc(C(C)=O)c2)nc1` the lipid storage change, negative = inhibition was inconclusive: 33.9%. In the case of `CCOC(=O)c1ccc(NC(=O)c2nc[nH]c2C(=O)N[C@@H](CCCCNC(=O)OC(C)(C)C)C(=O)OC(C)(C)C)cc1`, the Potency is reported as inconclusive: 29.1 µM [falling, single point]. With `CC/C(=C/c1ccccc1)c1cccc2[nH]c3c(OC)cccc3c12` the lipid storage change, negative = inhibition was inconclusive: 7.07%. In the case of `c1ccc(CN2CCC3(CC2)Nc2ccccc2CO3)cc1`, the Potency is reported as inconclusive: 29.1 µM [cytotoxic, single point]. In the case of `Cc1ccc(S(=O)(=O)NNC(=O)Nc2cccc3ccccc23)cc1`, the lipid storage change, negative = inhibition is reported as inconclusive: 23.5%. With `CCCOc1ccc(NC(=O)CNC(=O)c2cc(OC)cc(OC)c2)cc1OCCC` the lipid storage change, negative = inhibition was inconclusive: 24.2%. With `N#Cc1ccc(CSc2nnc(COc3ccccc3)n2-c2ccccc2)cc1` the Potency was inconclusive: 0.092 µM [activator, full curve]. For `O=C(CSc1nnc(NC(=O)c2ccccc2F)s1)NCc1ccc(F)cc1`, the lipid storage change, negative = inhibition was inconclusive: 454%. With `COc1c(C)cc(S(=O)(=O)NCCN2CCOCC2)c(C)c1C` the Potency was inconclusive: 29.1 µM [activator, single point]. In the case of `CCCC(=O)NNC(=O)c1ccoc1C`, the Potency is reported as inconclusive: 29.1 µM [falling, single point]. In the case of `Cc1nn(Cc2ccccc2)c(Cl)c1C(=O)NCCc1ccc(Cl)cc1`, the Potency is reported as inconclusive: 0.82 µM [activator, full curve, poor fit]. For `O=C(Cn1nc(Cc2cccnc2)c2ccccc2c1=O)NCC1COc2ccccc2O1` (stereo not drawn), the lipid storage change, negative = inhibition was inconclusive: 0.744%. In the case of `O=C(/C=C\Nc1ccc(Br)cc1)c1cccnc1`, the lipid storage change, negative = inhibition is reported as inconclusive: 32.9%. For `CCC(C)(C)NC(=O)C(c1ccc(C)o1)N(Cc1cccs1)C(=O)Cn1nnc2ccccc21` (stereo not drawn), the lipid storage change, negative = inhibition was inconclusive: -2.37%. In the case of `CCOC(=O)/C=C/C(=O)OCc1csc(CC(=O)Nc2ccccc2C)n1`, the Potency is reported as inconclusive: 5.8 µM [falling, single point]. In the case of `COc1cc(Cl)ccc1OCc1cc(C(=O)N2C[C@H]3CC[C@H]2C3)no1`, the lipid storage change, negative = inhibition is reported as inconclusive: -6.88%. In the case of `Cn1cc(Cl)c(C(=O)Nc2cnn(Cc3ccc(F)cc3)c2)n1`, the lipid storage change, negative = inhibition is reported as inconclusive: 32%. In the case of `COc1ccc(C2Nc3ccccc3C(=O)N2Cc2ccco2)cc1COc1ccc([N+](=O)[O-])cc1` (stereo not drawn), the Potency is reported as inconclusive: 0.731 µM [falling, full curve]. With `O=C(Nc1ccc2c(c1)OCCO2)c1ccc(Cl)cc1Cl` the “outcome” value was “inactive [at 46.1 µM]”. For `CCOc1ccc2nc(NC(=O)C3CCN(S(=O)(=O)c4cnc[nH]4)CC3)sc2c1`, the Potency was inconclusive: 2.59 µM [activator, single point]. With `CCOC(=O)CSc1nc2ccccc2n1CC(=O)N1CCN(c2ccccc2)CC1` the lipid storage change, negative = inhibition was inconclusive: -5.9%. In the case of `Cc1ccc(C(=O)N2N=C(CC(C)C)CC2(O)C(F)(F)F)o1` (stereo not drawn), the lipid storage change, negative = inhibition is reported as inconclusive: 31.3%. For `CC(C)(C)C1C/C(=C/c2ccco2)C(=O)/C(=C/c2ccco2)C1` (stereo not drawn), the Potency was active: 10.3 µM. With `COc1ccc(NC(=O)CCCn2c(=O)c3sccc3n(Cc3ccccc3C)c2=O)cc1` the lipid storage change, negative = inhibition was inconclusive: -79.6%. In the case of `O=c1cc(CN2CCOCC2)c2cc(Cl)c(O)cc2o1`, the “outcome” value is reported as “inactive [at 46.1 µM]”. In the case of `CCNC(=S)N1CCC(n2cnc3ccccc32)CC1`, the lipid storage change, negative = inhibition is reported as inconclusive: -38.8%. For `COc1cc(CCC(=O)OCC(=O)Nc2ccc3c(c2)OCO3)cc(OC)c1OC`, the lipid storage change, negative = inhibition was inconclusive: 51.8%. With `Cc1ccc(N2CC(C(=O)OCC(=O)C(C)(C)C)CC2=O)cc1C` (stereo not drawn) the Potency was inconclusive: 3.66 µM [falling, full curve]. With `O=C(CSc1nc2c(c(=O)n1-c1ccc(F)cc1)SCC2)N1CCCC1` the “lipid storage change, negative = inhibition” value was inactive: -0.194%. With `CCCCOc1ccc(C(=O)NCC(=O)NCC2CCCO2)cc1` (stereo not drawn) the lipid storage change, negative = inhibition was inconclusive: 21.5%. In the case of `Cc1nc(NC(C)C)c2oc3ccccc3c2n1`, the Potency is reported as inconclusive: 29.1 µM [falling, single point]. With `CC12CCC(=O)N1C(C(=O)Nc1ccc(Cl)c(S(=O)(=O)N3CCCCC3)c1)CS2` (stereo not drawn) the lipid storage change, negative = inhibition was inconclusive: 26.6%. In the case of `CCN1CCN(c2cc(C)c3cc(NC(=S)N(CC)CC)ccc3n2)CC1`, the lipid storage change, negative = inhibition is reported as inconclusive: 32.6%. With `O=C(N/N=C/c1ccc(O)c(O)c1)c1cccc(S(=O)(=O)N2CCCC2)c1` the Potency was inconclusive: 6.51 µM [rising, single point]. With `Cc1ccc2nc(-c3ccc(Br)cc3)cn2c1` the lipid storage change, negative = inhibition was inconclusive: 33.7%. In the case of `COc1cc(/C=C2\SC(N)=NC2=O)ccc1OCC(=O)Nc1ccccc1C`, the Potency is reported as inconclusive: 6.51 µM [activator, single point]. With `CCOC(=O)c1ccc(-c2ccc(/C=C(\C#N)C(=O)NCc3cccs3)o2)cc1` the lipid storage change, negative = inhibition was inconclusive: -4.5%. For `COc1ccccc1NCC(=O)c1ccc(C)c(C)c1`, the lipid storage change, negative = inhibition was inconclusive: 24.1%. With `O=C(c1cc(-c2ccc(F)cc2)nc2ccccc12)N1CCN(C2CCS(=O)(=O)C2)CC1` (stereo not drawn) the lipid storage change, negative = inhibition was inconclusive: -8.05%. For `COc1c(C(=O)Nc2nnc(C3CC3)s2)csc1Cl`, the lipid storage change, negative = inhibition was inconclusive: -5.57%. In the case of `CC1CCCC(NC(=O)COC(=O)c2cc(S(=O)(=O)N3CCOCC3)ccc2F)C1C` (stereo not drawn), the Potency is reported as inconclusive: 0.58 µM [falling, single point]. In the case of `CC(=O)Nc1ccc(C(=O)OC2CCCCC2=O)cc1` (stereo not drawn), the lipid storage change, negative = inhibition is reported as inconclusive: -7.32%. With `COc1cc(C(=O)NNC(=S)NC(=O)c2ccc(F)cc2)cc(OC)c1OC` the lipid storage change, negative = inhibition was inconclusive: -1.69%. For `O=C(CSc1nc2ccccc2c(=O)n1CCCO)N1CCc2ccccc21`, the Potency was inconclusive: 29.1 µM [falling, single point]. For `Nc1nc(COc2ccc(Cl)cc2)cs1`, the Potency was inconclusive: 0.651 µM [falling, single point]. With `CCCNC(=O)COC(=O)c1[nH]c(C)c(C(=O)OCC)c1C` the lipid storage change, negative = inhibition was inconclusive: 212%. For `CCN(CC)S(=O)(=O)c1ccc(NC(=O)C(C)N(c2ccccc2)S(C)(=O)=O)cc1` (stereo not drawn), the lipid storage change, negative = inhibition was inconclusive: -10.1%. In the case of `CN(CC(=O)Nc1ccccc1C(F)(F)F)C(=O)C1CC1`, the Potency is reported as inconclusive: 0.116 µM [falling, full curve, poor fit]. In the case of `CCOC(=O)C1=C(COc2ccccc2)NC(=O)NC1c1ccc(Cl)cc1` (stereo not drawn), the lipid storage change, negative = inhibition is reported as inconclusive: -68.8%. With `Nc1cc(Cl)ccc1N1CCCCC1` the lipid storage change, negative = inhibition was inconclusive: -19.8%. In the case of `COc1cccc(N2CCN(CC(=O)NC(C)c3ccccc3)CC2)c1` (stereo not drawn), the Potency is reported as inconclusive: 16.4 µM [activator, partial curve]. For `Cc1n(CC(=O)c2ccc(F)cc2)c2ccccc2[n+]1C`, the Potency was inconclusive: 10.3 µM [falling, partial curve, poor fit]. In the case of `O=C(Nc1ccc2c(c1)OCCO2)c1cc2sccc2n1Cc1ccc(F)cc1`, the lipid storage change, negative = inhibition is reported as inconclusive: -46.3%. With `COc1cccc2c(=O)n(CC(=O)NCCc3ccccc3)ccc12` the lipid storage change, negative = inhibition was inconclusive: 8.62%. In the case of `Cc1cc(NS(=O)(=O)c2ccc(NC(=S)NC(=O)c3cccnc3)cc2)no1`, the lipid storage change, negative = inhibition is reported as inconclusive: -53.2% [at 9.22 µM]. In the case of `COc1ccc(C(=O)NC2CC3CCCC(C2)N3Cc2ccccc2)c(OC)c1` (stereo not drawn), the Potency is reported as inconclusive: 4.11 µM [falling, single point]. For `CC(NC(=O)COC(=O)CCc1ccccc1)c1ccccc1` (stereo not drawn), the lipid storage change, negative = inhibition was inconclusive: -7.3%. With `Cc1ccccc1C(=O)N1CCCC(N2CCN(Cc3ccc4c(c3)OCO4)CC2)C1` (stereo not drawn) the “lipid storage change, negative = inhibition” value was inactive: 5.73%. With `Cc1nnc(SCC(=O)Nc2sc3c(c2C(=O)c2ccccc2)CCCC3)s1` the lipid storage change, negative = inhibition was inconclusive: -4.33%. With `O=C(N/C(=C\c1ccc(Br)cc1)C(=O)N1CCOCC1)c1ccc(Br)o1` the lipid storage change, negative = inhibition was inconclusive: 73.6%. For `O=S(=O)(NCC(c1ccco1)N1CCc2ccccc2C1)c1ccc(Br)cc1` (stereo not drawn), the Potency was inconclusive: 29.1 µM [cytotoxic, single point]. For `CCOC(=O)c1ccccc1NC(=O)C1CCCO1` (stereo not drawn), the “lipid storage change, negative = inhibition” value was inactive: 0.203%. With `CCOC(=O)N1CCN(C(=O)c2ccc(Cl)nc2)CC1` the lipid storage change, negative = inhibition was inconclusive: -34.5%. For `CCn1cc(C2=NOC(C(=O)O)C2)c(C)n1` (stereo not drawn), the lipid storage change, negative = inhibition was inconclusive: -126%. In the case of `Nc1cccc(CN2CCCC2)c1`, the lipid storage change, negative = inhibition is reported as inconclusive: -8.11%. With `Cc1cc(C)c(C)c(S(=O)(=O)N2CCN(C(=O)c3cc(=O)[nH]c4ccccc34)CC2)c1C` the lipid storage change, negative = inhibition was inconclusive: 0.0198%. With `Cc1cc(-c2ccco2)n(CC(=O)NCc2ccccc2)n1` the Potency was inconclusive: 0.731 µM [falling, single point].

Reference: PubChem BioAssay AID2685 (National Center for Advancing Translational Sciences (NCATS), 2010)
On the % scale 0 is the no-effect control and ±100 the full control effect; potency means the concentration at half of the fitted maximal effect.
